Test: solid-phase peptide synthesis
Conditions: whole synthesis; for final HPLC purity: analytical HPLC, UV 214 nm, C18 Vydac
[1] = scale of the general procedure 0.2 mmol (Boc/PAM), 0.1 mmole (Fmoc/Rink)

Row | Substance | final HPLC purity [1] | isolated yield (overall, scale of the general procedure 0.2 mmol (Boc/PAM), 0.1 mmole (Fmoc/Rink)) | crude mass (scale 0.1 mmole) | isolated mass (scale 0.1 mmole)
1 | H2N-Phe-Thr-Ser-homoCys(SO3H)-Tyr-Ser-Lys-Tyr-Leu-Asp-Ser-Arg-Arg-Ala-Gln-Asp-Phe-Val-Gln-Trp-Leu-Met-Asn-Thr-NH2 | 95% purity | – | – | –
2 | HO-PLA-Thr-Ser-Glu-Tyr-Ser-Lys-Tyr-Leu-Asp-Ser-Arg-Arg-Ala-Gln-Asp-Phe-Val-Gln-Trp-Leu-Met-Asn-Thr-NH | 95% purity | 10˜15% yield totally | 200˜250 mg | 25˜40 mg
